According to publication PMC8648671:
No constants are given. Whether binding was seen depends on the method and setting. Binding seen in cells or lysates may run through a third protein. Binding calls can cover weak binding; strength is not graded here. Sequences can lack the tags named with a protein. One block for each binder: values may come before it.

Assays:
[1] = molecular target: Beta-Pix (endogenous, SW480) (human (endogenous in SW480)); experiment: co-IP; SW480 cells expressing Flag-Dyn2 treated with AuNP-IgG or AuNP-SH3; immunoprecipitation of βPix (anti-βPix-GBD by the legend, anti-βPix-SH3 by the text)
βPix-Myc = experiment: co-IP; HEK293T transfected with βPix-Myc or βPix-SH3 mutant-Myc and Flag-Dyn2; anti-Myc antibodies; IP buffer 50 mM HEPES pH 7.4, 150 mM NaCl, 0.5 % NP 40
Flag-βPix = experiment: co-IP; HEK293T transfected with Flag-βPix (or mutants) and Dyn2-GFP (or R834A); anti-Flag antibodies; also with 5 µM PP2 for 30 min, or with constitutively active or dominant-negative Src

- binding [1]: binds
B1: Flag-Dyn2 (SW480) (protein, UniProt P39052 1-870)
chain: MGNRGMEELIPLVNKLQDAFSSIGQSCHLDLPQIAVVGGQSAGKSSVLENFVGRDFLPRGSGIVTRRPLILQLIFSKTEYAEFLHCKSKKFTDFDEVRQEIEAETDRVTGTNKGISPVPINLRVYSPHVLNLTLIDLPGITKVPVGDQPPDIEYQIKDMILQFISRESSLILAVTPANMDLANSDALKLAKEVDPQGLRTIGVITKLDLMDEGTDARDVLENKLLPLRRGYIGVVNRSQKDIEGRKDIRAALAAERKFFLSHPAYRHMADRMGTPHLQKTLNQQLTNHIRESLPTLRSKLQSQLLSLEKEVEEYKNFRPDDPTRKTKALLQMVQQFGVDFEKRIEGSGDQVDTLELSGGARINRIFHERFPFELVKMEFDEKDLRREISYAIKNIHGVRTGLFTPDLAFEAIVKKQVVKLKEPCLKCVDLVIQELISTVRQCTSKLSSYPRLREETERIVTTYIREREGRTKDQILLLIDIEQSYINTNHEDFIGFANAQQRSTQLNKKRAIPNQGEILVIRRGWLTINNISLMKGGSKEYWFVLTAESLSWYKDEEEKEKKYMLPLDNLKIRDVEKGFMSNKHVFAIFNTEQRNVYKDLRQIELACDSQEDVDSWKASFLRAGVYPEKDQAENEDGAQENTFSMDPQLERQVETIRNLVDSYVAIINKSIRDLMPKTIMHLMINNTKAFIHHELLAYLYSSADQSSLMEESAEQAQRRDDMLRMYHALKEALNIIGDISTSTVSTPVPPPVDDTWLQNTSSHSPTPQRRPVSSVHPPGRPPAVRGPTPGPPLIPMPVGATSSFSAPPIPSRPGPQNVFANNDPFSAPPQIPSRPARIPPGIPPGVPSRRAPAAPSRPTIIRPAEPSLLD

- binding (βPix-Myc): binds
B2: Flag-Dyn2 (HEK293T) (protein, UniProt P39052 1-870)
chain: B1 chain

- binding (Flag-βPix): binds
B3: Dyn2-GFP (protein, UniProt P39052 1-870)
chain: B1 chain
